TEAD-luciferase reporter activity data for 31 compounds are collected here from the supplement of paper PMC10735217.

This is one part of the list. Single values are uncertain here, since repeats match poorly.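 The human kidney-derived cells carry a stably integrated construct of eight TEAD-binding elements driving luciferase, read by luminescence in a drug-repurposing library screen. A compound counts as a hit when its signal is more than five robust Z scores above the plate mean.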

The subject of this assay is HEK293A TEAD-LUC reporter. In words: TEAD-luciferase reporter activity (YAP activation), robust Z score vs plate; higher = stronger YAP/TEAD activation. Conditions: 24 h. (A reporter such as luciferase makes a cellular process visible.)

As for `COc1cc2c(c3c1c(=O)c1cc4ccccc4cc1n3C)[C@H](OC(C)=O)[C@H](OC(C)=O)C(C)(C)O2`, under “compound concentration: 2 uM”, the TEAD-luciferase reporter activity was inactive: -1.84.
Take `Cn1cc(-c2ccc3nnc(Sc4ccc5ncccc5c4)n3n2)cn1`: the TEAD-luciferase reporter activity (compound concentration: 200 nM) is inactive: 0.157, the TEAD-luciferase reporter activity (compound concentration: 2 uM) is inactive: -1.63 and the TEAD-luciferase reporter activity (compound concentration: 10 uM) is inactive: -0.196.
The corresponding values for `CC(=O)NC(C(=O)O)C(C)(C)SN=O` (centres undefined) are inactive: -0.426, inactive: -1.88 and inactive: 0.744.
In the case of `CCCCc1nc(Cl)c(C(=O)O)n1Cc1ccc(-c2ccccc2-c2nn[nH]n2)cc1` [Carboxylosartan], the TEAD-luciferase reporter activity was inactive: -1.43 (compound concentration: 200 nM), inactive: 0.912 (compound concentration: 2 uM) and inactive: -0.778 (compound concentration: 10 uM).
With `Cc1cc(C)cc(CN2CCCCC23Cc2ccccc2CNC3=O)c1` (centres undefined), the TEAD-luciferase reporter activity is, setting by setting: (compound concentration: 200 nM) inactive: 0.555; (compound concentration: 10 uM) inactive: 0.0893.
Take `CC(C)NC[C@@H](C(=O)N1CCN(c2ncnc3c2[C@H](C)C[C@H]3O)CC1)c1ccc(Cl)cc1` [Ipatasertib]: the TEAD-luciferase reporter activity (compound concentration: 2 uM) is inactive: -0.903.
As to `CC(C)NC[C@@H](C(=O)N1CCN(c2ncnc3c2[C@H](C)C[C@H]3O)CC1)c1ccc(Cl)cc1`, the TEAD-luciferase reporter activity (compound concentration: 200 nM) was inactive: -1.38 and the TEAD-luciferase reporter activity (compound concentration: 10 uM) was inactive: 1.52.
The corresponding values for `CCOc1ccccc1OCCNC(C)Cc1ccc(OC)c(S(N)(=O)=O)c1` (centres undefined) [tamsulosin (0.2mg), GL PharmTech] are inactive: -3.02 and inactive: -1.5.
For the compound `CCOc1ccccc1OCCNC(C)Cc1ccc(OC)c(S(N)(=O)=O)c1` (centres undefined) [tamsulosin (0.2mg)], the TEAD-luciferase reporter activity (compound concentration: 2 uM) is inactive: -0.319.
On to `N=C(N)N/N=C/c1ccc(Cl)cc1Cl`, for which the TEAD-luciferase reporter activity is, setting by setting: (compound concentration: 200 nM) inactive: 0.63; (compound concentration: 2 uM) inactive: -0.39; (compound concentration: 10 uM) inactive: 0.865.
The corresponding values for `C[C@H](CSN=O)C(=O)N1CCC[C@H]1C(=O)O` are inactive: 2.37, inactive: 0.709 and inactive: -0.257.
Taken in the same sequence, the figures for `NC(=O)[C@H](Cc1ccc(-c2ccccc2)cc1)NC(=O)c1ccc(-c2ccc(C(F)(F)F)cc2)cc1` were inactive: -0.839, inactive: -0.3 and inactive: -0.873.
The corresponding values for `COCCOCCOc1ccc(C2=N[C@@](C)(C(=O)O)CS2)c(O)c1` are active: 5.72, inactive: -0.639 and inactive: -1.11.
On to `COc1ccccc1N1CCC(CCCN2C(=O)CCCC2=O)CC1`, for which the TEAD-luciferase reporter activity runs as follows: (compound concentration: 200 nM) inactive: -0.172; (compound concentration: 2 uM) inactive: 0.118; (compound concentration: 10 uM) inactive: -0.745.
With `CCCCCCOC(=O)c1cccnc1`, the TEAD-luciferase reporter activity runs as follows: (compound concentration: 200 nM) inactive: 3.53; (compound concentration: 2 uM) inactive: 0.0923; (compound concentration: 10 uM) inactive: -0.102.
Turning to `c1ccc2c(c1)CC(N1CCN(c3cccc4c3OCCO4)CC1)C2`, the TEAD-luciferase reporter activity was inactive: -0.0141 (compound concentration: 200 nM), inactive: 1.38 (compound concentration: 2 uM) and inactive: -1.1 (compound concentration: 10 uM).
The corresponding values for `O=C1CCC(N2Cc3ccccc3C2=O)C(=O)N1` (centres undefined) are inactive: -0.225, inactive: -0.214 and active: 5.42.
Taken in the same sequence, the figures for `CC[C@H](C)[C@H](NC(=O)[C@H](C)NC(=O)[C@H](CC(=O)O)NC(=O)[C@H](C)NC(=O)[C@@H](N)Cc1ccc(O)cc1)C(=O)N[C@@H](Cc1ccccc1)C(=O)N[C@H](C(=O)N[C@@H](CC(N)=O)C(=O)N[C@@H](CO)C(=O)N[C@@H](Cc1ccc(O)cc1)C(=O)N[C@@H](CCCNC(=N)N)C(=O)N[C@@H](CCCCN)C(=O)N[C@H](C(=O)N[C@H](CC(C)C)C(=O)NCC(=O)N[C@@H](CCC(N)=O)C(=O)N[C@@H](CC(C)C)C(=O)N[C@@H](CO)C(=O)N[C@@H](C)C(=O)N[C@@H](CCCNC(=N)N)C(=O)N[C@@H](CCCCN)C(=O)N[C@@H](CC(C)C)C(=O)N[C@@H](CC(C)C)C(=O)N[C@@H](CCC(N)=O)C(=O)N[C@@H](CC(=O)O)C(=O)N[C@H](C(=O)N[C@@H](CCSC)C(=O)N[C@@H](CO)C(=O)N[C@@H](CCCNC(=N)N)C(N)=O)[C@@H](C)CC)C(C)C)[C@@H](C)O` [Sermorelin] were inactive: -1.3, inactive: 0.452 and inactive: 0.314.
In the case of `C[C@]12CCC(=O)C=C1CCC1C2CC[C@@]2(C)C1CC[C@]2(O)C(=O)CSCCO` (some centres undefined), the TEAD-luciferase reporter activity was inactive: -1.22 (compound concentration: 200 nM), inactive: 1.57 (compound concentration: 2 uM) and inactive: 0.84 (compound concentration: 10 uM).
Taken in the same sequence, the figures for `O=C(O)CCCCN(CCc1ccccc1OCc1ccc(CCc2ccccc2)cc1)Cc1ccc(C(=O)O)cc1` [Cinaciguat] were inactive: -0.684, inactive: 0.455 and inactive: 1.05.
In the case of `CC(=O)[C@H]1CC[C@H]2[C@@H]3CCC4=CC(=O)CC[C@]4(C)[C@H]3CC[C@]12C` [Progesterone], the TEAD-luciferase reporter activity is inactive: 0.744 (compound concentration: 200 nM), inactive: 0.804 (compound concentration: 2 uM) and inactive: 0.918 (compound concentration: 10 uM).
For `CCCCOc1cc(N)ccc1C(=O)OCCN(CC)CC`, the TEAD-luciferase reporter activity is inactive: -2.01 (compound concentration: 200 nM), inactive: -1.28 (compound concentration: 2 uM) and inactive: -0.42 (compound concentration: 10 uM).
As for `CN(C)[C@@H]1CCC[C@H]1OC(=O)C(c1ccccc1)c1ccccc1`, the TEAD-luciferase reporter activity is inactive: -2.9 (compound concentration: 200 nM), inactive: -0.859 (compound concentration: 2 uM) and inactive: -0.915 (compound concentration: 10 uM).
Taken in the same sequence, the figures for `COC(=O)C1=C(C)NC(C)=C(C(=O)OCCCCCCOc2cc(-c3ccccc3)[nH]n2)C1c1cccc([N+](=O)[O-])c1` (centres undefined) were inactive: -1.37, inactive: -1.54 and inactive: -0.208.
Taken in the same sequence, the figures for `C#CCN(Cc1ccc2[nH]c(C)nc(=O)c2c1)c1ccc(S(=O)(=O)n2ccc3ccccc32)cc1` were inactive: -0.491, inactive: -2.17 and inactive: 1.15.
Taken in the same sequence, the figures for `CCCCCCCCCC(=O)c1ccc(O)c(C(=O)Nc2ccc([N+](=O)[O-])cc2)c1` were inactive: -1.24, inactive: -1.16 and inactive: 2.75.
As to `C[C@H]1CO[C@@H]2Cn3cc(C(=O)NCc4ccc(F)cc4F)c(=O)c(O)c3C(=O)N12` [cabotegravir], the TEAD-luciferase reporter activity by setting is: (compound concentration: 200 nM) inactive: -0.0603; (compound concentration: 2 uM) inactive: -0.666; (compound concentration: 10 uM) inactive: 1.37.
Taken in the same sequence, the figures for `COC(=O)c1cc2c(C(O)CNC(C)(C)C)ccc(O)c2[nH]1` (centres undefined) were inactive: -1.07, inactive: -0.473 and inactive: 0.422.
Taken in the same sequence, the figures for `CCCN(Cc1ccc(Oc2ccccc2)cc1)C(=O)C1C(C(=O)O)C(C(=O)N(CCC)Cc2ccc(Oc3ccccc3)cc2)C1C(=O)O` (centres undefined) were inactive: -1.36, inactive: -1.27 and inactive: -1.24.
Taken in the same sequence, the figures for `Cc1ccc(C(=O)Oc2c(Br)cc(Br)c3ccc(C)nc23)cc1` were inactive: -1.26, inactive: -0.49 and inactive: 0.000197.
As to `CCOC(=O)CN(CCN(CC(=O)O)Cc1ccccc1O)Cc1ccccc1O`, the TEAD-luciferase reporter activity runs as follows: (compound concentration: 200 nM) inactive: -0.298; (compound concentration: 2 uM) inactive: 2.16; (compound concentration: 10 uM) inactive: 2.31.
